These are yes or no findings as the source states them, for the method shown. Binding seen in cells or lysates may run through a third protein. Some results given as binding are weak or reduced against the parent protein; the word gives no strength.
Biological target: T1, UHRF1 (ubiquitin-like containing PHD and RING fingers domain 1) (human (endogenous in BeWo)) (UniProt Q96T88)
T1 sequence: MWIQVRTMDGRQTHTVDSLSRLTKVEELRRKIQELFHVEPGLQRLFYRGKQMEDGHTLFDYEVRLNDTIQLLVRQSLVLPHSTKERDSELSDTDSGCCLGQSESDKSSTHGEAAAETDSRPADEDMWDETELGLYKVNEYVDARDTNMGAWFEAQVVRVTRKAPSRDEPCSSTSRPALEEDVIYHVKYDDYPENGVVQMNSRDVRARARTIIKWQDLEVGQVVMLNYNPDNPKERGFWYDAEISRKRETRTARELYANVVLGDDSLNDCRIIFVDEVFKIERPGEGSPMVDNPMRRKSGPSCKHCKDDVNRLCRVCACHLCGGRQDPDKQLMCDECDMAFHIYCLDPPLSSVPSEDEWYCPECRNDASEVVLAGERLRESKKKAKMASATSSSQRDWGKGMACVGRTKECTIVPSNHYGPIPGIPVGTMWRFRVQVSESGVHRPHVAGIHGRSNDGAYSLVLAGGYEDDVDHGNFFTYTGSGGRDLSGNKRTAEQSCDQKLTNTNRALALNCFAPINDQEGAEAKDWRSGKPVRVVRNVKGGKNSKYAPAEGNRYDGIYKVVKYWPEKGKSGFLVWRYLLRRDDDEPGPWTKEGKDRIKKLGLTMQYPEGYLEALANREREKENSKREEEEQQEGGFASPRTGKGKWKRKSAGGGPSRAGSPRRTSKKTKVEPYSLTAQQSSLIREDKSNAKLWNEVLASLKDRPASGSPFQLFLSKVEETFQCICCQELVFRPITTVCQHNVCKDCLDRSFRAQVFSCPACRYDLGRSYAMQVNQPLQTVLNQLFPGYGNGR
Experiment: co-IP; validation of the UHRF1 partners found by mass spectrometry by immunoprecipitation; data not shown

By UniProt entry, the sequences of proteins in these tests, tags left out.
UniProt Q92769: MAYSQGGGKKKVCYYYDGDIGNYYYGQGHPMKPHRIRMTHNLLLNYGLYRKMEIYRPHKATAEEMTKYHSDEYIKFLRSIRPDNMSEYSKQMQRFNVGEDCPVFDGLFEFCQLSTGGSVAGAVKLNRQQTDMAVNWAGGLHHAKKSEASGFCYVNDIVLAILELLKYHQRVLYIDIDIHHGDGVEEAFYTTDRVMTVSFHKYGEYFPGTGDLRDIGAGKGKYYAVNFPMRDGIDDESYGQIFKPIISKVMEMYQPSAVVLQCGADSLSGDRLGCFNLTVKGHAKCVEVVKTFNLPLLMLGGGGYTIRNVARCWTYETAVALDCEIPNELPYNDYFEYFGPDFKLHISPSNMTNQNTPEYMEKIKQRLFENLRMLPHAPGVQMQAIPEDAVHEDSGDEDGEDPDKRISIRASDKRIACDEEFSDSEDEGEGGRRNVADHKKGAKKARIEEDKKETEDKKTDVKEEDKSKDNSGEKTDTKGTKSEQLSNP
UniProt P12004: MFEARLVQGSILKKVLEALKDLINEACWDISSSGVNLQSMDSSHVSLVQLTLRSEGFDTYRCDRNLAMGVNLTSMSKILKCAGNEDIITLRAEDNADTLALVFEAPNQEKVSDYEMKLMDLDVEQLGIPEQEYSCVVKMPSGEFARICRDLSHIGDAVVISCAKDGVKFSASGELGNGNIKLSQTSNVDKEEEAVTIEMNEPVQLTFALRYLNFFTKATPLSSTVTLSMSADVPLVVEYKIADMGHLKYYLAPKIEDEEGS
UniProt Q93009: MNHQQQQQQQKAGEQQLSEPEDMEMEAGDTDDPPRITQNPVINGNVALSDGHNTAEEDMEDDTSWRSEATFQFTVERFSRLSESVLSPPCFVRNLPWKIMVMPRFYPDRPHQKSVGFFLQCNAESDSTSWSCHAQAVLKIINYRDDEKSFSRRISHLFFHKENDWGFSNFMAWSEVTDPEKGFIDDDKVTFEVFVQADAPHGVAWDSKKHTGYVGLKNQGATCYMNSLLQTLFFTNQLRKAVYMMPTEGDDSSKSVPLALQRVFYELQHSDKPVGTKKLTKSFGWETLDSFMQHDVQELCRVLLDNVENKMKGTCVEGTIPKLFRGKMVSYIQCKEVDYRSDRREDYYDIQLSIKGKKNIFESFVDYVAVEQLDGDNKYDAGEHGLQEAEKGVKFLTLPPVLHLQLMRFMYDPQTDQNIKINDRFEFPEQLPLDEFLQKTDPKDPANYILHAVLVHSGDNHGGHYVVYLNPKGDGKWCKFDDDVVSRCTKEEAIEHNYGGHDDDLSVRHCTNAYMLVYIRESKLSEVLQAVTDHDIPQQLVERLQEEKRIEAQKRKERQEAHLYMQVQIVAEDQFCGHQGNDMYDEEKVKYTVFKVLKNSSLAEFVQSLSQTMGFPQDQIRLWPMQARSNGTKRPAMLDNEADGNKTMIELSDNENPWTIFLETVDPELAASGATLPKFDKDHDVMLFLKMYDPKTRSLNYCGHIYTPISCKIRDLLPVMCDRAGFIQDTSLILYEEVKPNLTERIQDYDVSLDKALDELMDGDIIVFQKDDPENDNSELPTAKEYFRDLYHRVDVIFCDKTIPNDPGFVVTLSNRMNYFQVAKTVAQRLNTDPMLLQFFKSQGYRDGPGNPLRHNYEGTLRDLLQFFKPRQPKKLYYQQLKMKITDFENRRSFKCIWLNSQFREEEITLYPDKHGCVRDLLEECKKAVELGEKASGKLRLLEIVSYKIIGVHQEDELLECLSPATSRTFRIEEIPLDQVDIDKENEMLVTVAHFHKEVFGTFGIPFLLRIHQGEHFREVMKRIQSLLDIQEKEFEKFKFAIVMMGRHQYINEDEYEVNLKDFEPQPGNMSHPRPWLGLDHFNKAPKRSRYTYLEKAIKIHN
UniProt P83916: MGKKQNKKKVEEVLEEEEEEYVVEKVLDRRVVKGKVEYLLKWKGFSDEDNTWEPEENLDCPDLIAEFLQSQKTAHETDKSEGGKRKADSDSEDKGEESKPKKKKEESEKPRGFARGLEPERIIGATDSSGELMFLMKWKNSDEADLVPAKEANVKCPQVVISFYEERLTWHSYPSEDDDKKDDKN

Substance | binding
HDAC2 (from UniProt Q92769 1-488) | binds
PCNA (from UniProt P12004 1-261) | binds
USP7 (from UniProt Q93009 1-1102) | binds
heterochromatin protein 1 (HP1β) (from UniProt P83916 1-185) | binds

Reference: article PMC7256068
